From patent US10004761B2, “Malodor neutralizing composition” (priority 2016, dated 2018) come the findings set out here.

SMILES strings stand for the structures.

This data set concerns hyaluronidase Type IV-S, from bovine testes (Hyase). Description: Dische's assay (Method II) of HA degradation by Hyase with inhibitors. To be noted: 20 μL inhibitor stock incubated 2 h with 20 μL Hyase, then HA 200 μL, room temperature 24 h. The data set is classed as biochemical. The method, then: Method II (Dische's assay; detection of uronic acid residues): Assays were performed by following the procedures described in Dische Z. [J. Biol. Chem., 1947, 167, p. 189-198] and Dische and Rothschild [Anal Biochem., 1967, 21(1), p. 125-30]. In these assays, molecules containing the uronic acid residues found in the precipitate formed upon CPC additions, are re-solubilized and products formed by -sulfuric acid hydrolysis of these fragments are detected by a spectrophotometric assay employing carbazole chromagen reagent. In addition, small residues degraded off the HA chains that have not precipitated with the addition of CPC, can be detected by the carbazole assay performed on the solution, so as to detect all of the uronic acid content.
Evaluation of HA degradation by this method was generally performed as follows:
20 μL of a NAC stock solution, and 20 μL of the stock solutions of the other inhibitors were used in the assay.
200 μL of the HA stock solution were placed in each tube, for achieving a 1 mg HA per tube.
Twenty (20) μL of hyase and 20 μL of NAC were combined and incubated for 2 hours. Then 200 μL of HA (1 mg) were added to each tube and the mixture was incubated at room temperature for 24 hours. Thereafter, the tubes were heated for 2 minutes in boiling water bath and 8 mL of doubled distilled water were added to the tubes as preparation for the Dische's assay.
As per Dische's Assay, 100 μL of 3N NaCl and 0.5 mL of 10% CPC (cetylpyridinium chloride) were thereafter added to each tube and the mixture was incubated at 37° C. until flocculation-turbidity (resulting from precipitation of HA+CPC) could be observed. The mixture was centrifuged for 10 minutes at 10,000 g at room temperature, and the supernatant was thereafter separated from the obtained pellet.
The pellet was dissolved in 1 ml of CaCl2, and the obtained solution was incubated at 37° C. until complete dissolution of the pellet is obtained. […]
The pink-violet color developed by the chromogen was measured using a spectrophotometer at 527 nm. […]
`O=C(O)c1cc(=O)c2c(OCC(O)COc3cccc4oc(C(=O)O)cc(=O)c34)cccc2o1` [Cromoglycate, sodium Cromoglycate]: the “Net OD at 527 nm” value is recorded as 0.001.
In the case of `N[C@@H](CCC(=O)N[C@@H](CS)C(=O)NCC(=O)O)C(=O)O` [Glutathione, Reduced Glutathione] it was 0.045.
The result for `CC(=O)N[C@@H](CS)C(=O)O` [NAC, N-acetyl L-cysteine] reads 0.321.
